Laboratory results from article PMC2887905.
These are yes or no findings as the source states them, for the method shown.

Biological target: Recombinant HIV-1 gp120 (LAV, CXCR4 monotropic, identical to NL4-3 gp120, glycosylated) (HIV-1 (LAV; identical to NL4-3 gp120)) (UniProt P03377)
Test: condition: below 5 RU; tested at 1, 5, 10, 25 and 50 μg/ml; SPR; LAV gp120 immobilised by NHS/EDC coupling on a CM5 sensor chip (3500-5000 RU), Biacore 1000, HBS-EP buffer, flow rate 5 μl/min for 6 min; proteins tested at 1, 5, 10, 25 and 50 μg/ml; both purified

| Substance | binding |
| --- | --- |
| bovine serum albumin, normal, non-modified (from UniProt P02769 25-607) | no binding |
| human serum albumin, normal, non-modified (from UniProt P02768 25-609) | no binding |
| mouse serum albumin, normal, non-modified (from UniProt P07724 25-608) | no binding |
